Some results were stated once for a whole list of compounds, not compound by compound.
These molecules were tested against dye-BSA complexes (Bos taurus, UniProt P02769) (assay: photostability of dye-BSA complexes under continuous UV irradiation). Conditions: one hour continuous UV excitation, 365 nm, 500 μW/cm2; 10 μM dye, 1.0 mg/mL BSA.
Format: physicochemical, bovine
Experimental: The photostability of flavone dyes 1-6 in the presence of BSA was also examined to evaluate the application for long-term imaging. The dye-BSA complexes (10 μM of compounds 1-6, 1.0 mg/mL of BSA in 10 mM PBS buffer containing 0.5% DMSO, pH=7.4) were placed in cuvette cells, then were continuously irradiated under a hand-held UV lamp (λ=365 nm, 500 μW/cm2).

By UniProt entry, the sequences of proteins in these tests, tags left out. Residues count along the entry.
UniProt P02769, 25-607: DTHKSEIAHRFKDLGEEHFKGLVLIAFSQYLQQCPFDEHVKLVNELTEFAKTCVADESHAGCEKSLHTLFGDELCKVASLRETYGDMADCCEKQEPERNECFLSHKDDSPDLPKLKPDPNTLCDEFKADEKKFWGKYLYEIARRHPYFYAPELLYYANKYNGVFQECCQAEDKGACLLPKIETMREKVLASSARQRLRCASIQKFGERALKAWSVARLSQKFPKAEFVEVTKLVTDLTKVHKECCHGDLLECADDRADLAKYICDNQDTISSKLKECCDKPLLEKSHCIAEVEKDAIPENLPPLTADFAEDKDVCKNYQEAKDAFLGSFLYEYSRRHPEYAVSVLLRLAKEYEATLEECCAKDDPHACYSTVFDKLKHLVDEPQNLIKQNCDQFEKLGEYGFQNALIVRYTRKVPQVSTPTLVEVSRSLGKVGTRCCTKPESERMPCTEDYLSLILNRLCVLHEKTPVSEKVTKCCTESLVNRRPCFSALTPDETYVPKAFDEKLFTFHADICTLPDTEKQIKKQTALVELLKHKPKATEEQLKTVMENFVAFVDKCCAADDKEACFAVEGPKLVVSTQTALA

With `CCOCc1ccc2oc(-c3ccc(N(C)C)cc3)c(O)c(=O)c2c1` [compound 2, 2-(4-(dimethylamino)phenyl)-6-(ethoxymethyl)-3-hydroxy-4H-chromen-4-one] as the molecule, how does the “fluorescence intensity retained, of original intensity” value (from here on “fluorescence intensity retained”) read?
Its value is “above 80%”.

For `COc1c(-c2ccc(N(C)C)cc2)oc2ccc(C)cc2c1=O` [compound 4, 2-(4-(dimethylamino)phenyl)-3-methoxy-6-methyl-4H-chromen-4-one], which “fluorescence intensity retained” value is on record?
The value was “above 80%”.

For `Cc1ccc2oc(-c3ccc(N(C)C)cc3)c(O)c(=O)c2c1` [compound 3, 2-(4-(dimethylamino)phenyl)-3-hydroxy-6-methyl-4H-chromen-4-one], which “fluorescence intensity retained” value is on record?
Its value is “above 80%”.

How did the “fluorescence intensity retained” value turn out when `CN(C)c1ccc(-c2oc3ccccc3c(=O)c2O)cc1` [compound 1, 2-(4-(dimethylamino)phenyl)-3-hydroxy-4H-chromen-4-one] was run?
Its value is “above 80%”.
